Results on 17 compounds are retold here after PubChem BioAssay AID2685 (National Center for Advancing Translational Sciences (NCATS), 2010).

This is one part of the list. These are further read-outs of the screen, such as a control signal, another cell line or another target. No call is given for them. Compounds called inactive in the main read-out are mostly missing here. Words in brackets tell the shape of the fitted curve; partial curves, single points and poor fits give uncertain potencies.

This test can be described thus: qHTS Assay for Lipid Storage Modulators in Drosophila S3 Cells.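 On cell number change: cells counted by Cell Tracker Red CMTPX staining in the red channel.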 The settings on record: BODIPY lipid droplet fluorescence, 18-24 h; for cell number change: measured here: cell count max response, cells fed with added oleic acid. A digest of the protocol:
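Drosophila S3 cells loaded with oleic acid (400 uM, as added) and compounds at several concentrations; lipid droplets imaged by 488-nm laser-scanning cytometry, 500–530 nm intensity and object ratio to cell channel. Percent activity normalized to 20 uM Triacsin C.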

Where [1] appears, read: measured here: cell number channel AC50, cells fed with added oleic acid.
Setting [2] is: measured here: lipid fluorescence (Fed channel) AC50, cells fed with added oleic acid.

The term AC50 denotes the concentration at which the activity in the assay is half-maximal. Lower therefore signals greater potency. For `Cc1cccc(NC(=O)NNC(=O)c2ccc3ccccc3c2)c1`, the cell number change amounted to 33%. Moreover, under setting [1], the concentration at half-maximal activity (AC50) was 32.6 µM [rising, partial curve, poor fit].

Turning to `COc1ccccc1C1NC(=O)NC(C)=C1C(=O)Nc1cccc(C)c1C` (configuration not stated), the cell number change is -16.4%.

`CCOc1cc(/C=N/Nc2nncc(-c3ccccc3)n2)ccc1O`: the cell number change was -4.81%.

With `COCc1cc(C)nc(SCC(=O)Nc2cccc3cccnc23)c1C#N`, the cell number change turned out to be 0.0616%. For the same compound, under setting [2], the AC50 is 0.517 µM [rising, single point].

As to `C=CCn1c(SCC(=O)Nc2ccc(Br)cc2)nc(O)c(CC)c1=O`, the cell number change turned out to be 19.8%. The AC50 under setting [1] is 0.00517 µM [rising, full curve, poor fit].

With `COc1ccc(Br)cc1/C=N/Nc1ccc(Cl)c(C(=O)O)c1`, under setting [1], the AC50 was 6.51 µM [rising, single point].

For `COc1ccc(C(=O)C(O)C(c2ccc(C)cc2)N2CCOCC2)cc1OC` (configuration not stated), the cell number change worked out at 4.26%. Further, the concentration at half-maximal activity (AC50) under setting [2] was 29.1 µM [rising, single point].

Take `CCN(CC)S(=O)(=O)c1ccc2[nH]c(=O)cc(C(=O)NCc3ccccc3)c2c1`: the cell number change is 14.6%.

On to `C=CCNc1sc(C(=O)c2ccc(C)cc2)c(N)c1C#N`, for which the cell number change is 10.2%.

For the compound `COc1ccc(CNC(=O)c2c(-c3c(F)cccc3Cl)noc2C)cc1`, the cell number change amounted to 4.96%. Besides, the concentration at half-maximal activity (AC50) under setting [1] is 0.82 µM [rising, single point]. Further, the concentration at half-maximal activity (AC50) under setting [2] was 0.13 µM [rising, full curve, poor fit].

Regarding `CCn1c(N2CCN(C(=O)NC3CCCCC3)CC2)nc2ccccc21`, the cell number change is -54.9%. Moreover, the half-maximal activity concentration (AC50) under setting [1] was 20.6 µM [falling, single point]. Also, the AC50 under setting [2] was 20.6 µM [falling, single point].

Take `COc1ccc(C(=O)NCC(=O)N2CCNC(=O)C2)cc1OC`: the cell number change was 13.4%.

As to `Cc1ccc(C(C(=O)NC2CCCC2)N(Cc2ccc3c(c2)OCO3)C(=O)Cc2cccs2)cc1` (configuration not stated), the cell number change was -38.6%. The AC50 under setting [1] is 29.1 µM [falling, single point].

For `O=C(NCCN1CCN(Cc2ccc([N+](=O)[O-])cc2)CC1)C(=O)Nc1ccccc1`, the cell number change is -107%. Further, the concentration at half-maximal activity (AC50) under setting [1] is 29.1 µM [falling, single point]. Besides, the half-maximal activity concentration (AC50) under setting [2] is 29.1 µM [falling, single point].

`Cc1sc2nc(C(C)C)nc(SCC(=O)NCc3ccco3)c2c1C`: the cell number change was -36.5%. Moreover, the AC50 under setting [1] is 9.2 µM [falling, partial curve, poor fit]. The AC50 under setting [2] was 23.1 µM [falling, single point].

Regarding `O=c1[nH]c2ccccc2nc1-c1cccs1`, the cell number change is -11.7%. Moreover, the AC50 under setting [2] was 6.51 µM [falling, single point].

As to `CCN(C(=O)COC(=O)/C=C/c1nc2ccccc2s1)C1CCS(=O)(=O)C1` (configuration not stated), the cell number change was -27.5%. Besides, the AC50 under setting [1] is 3.26 µM [falling, full curve, poor fit].
